According to PubChem BioAssay AID1259415 (National Center for Advancing Translational Sciences (NCATS), 2018):
Values joined by “and” are separate entries in the source; they are usually repeats but may differ in a detail not shown here. Identical values can stand only once. About 18,000 (4.4%) of roughly 410,000 compounds were called active. The inconclusive results got no clear call from the source; some entries with a clear call stand among them for comparison. No stated cut-off is given here; in the data, active means activity change below about -60%; inconclusive means no clear call, values can overlap the other calls; inactive means above about -39%. The source holds several records for some structures; these can differ, active in one and inactive in another.

Assay: qHTS Assay for inhibitors of the human cytomegalovirus (HCMV)
Details: HFF cells, HCMV-luciferase reporter, 72 h; at 57.5 µM; active compounds read low
Procedure, shortened: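 Steps: HFFs plated, 16 h 37C; compounds added; HCMV-luciferase added to MOI 1 PFU/cell; 72 h 37C; OneGlo reagent, 5 min room temperature; luminescence read, normalized to controls.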
On the % scale 0 is the no-effect control and ±100 the full control effect.

| SMILES | activity change, negative = inhibition |
| --- | --- |
| O=C(c1ccccc1)c1ccc(Cn2cc(-c3ccccc3)nn2)cc1 | inconclusive: -40.5% |
| N#Cc1cc2ccccc2nc1SCC(=O)Nc1ccc(S(=O)(=O)N2CCCC2)cc1 | inconclusive: -54.9% |
| C/C(=C\C(=O)c1ccccc1)Nc1ccc(N2CCOCC2)cc1 | inconclusive: -46.4% |
| CC(=O)c1c(N2CCCCC2)nc(=S)n(Cc2ccccc2)c1C | inconclusive: -51.6% |
| COc1ccc(NCc2ccc3c(c2)OCO3)cc1Cl | inconclusive: -48.6% |
| COc1ccc2ncc3c(-c4ccc(C)c(C)c4)nn(CC(=O)Nc4ccccc4)c3c2c1 | active: -92.3% |
| Cc1cccc(N2CCN(C(=O)CCCn3c(=S)[nH]c4cc5c(cc4c3=O)OCO5)CC2)c1C | inconclusive: -41.8% |
| O=C(Nc1ccc2c(c1)OCCO2)C(c1ccnc2ccccc12)N1CCN(c2ccc(C(F)(F)F)cn2)CC1 (stereo not given) | inconclusive: -51.1% |
| CCOC(=O)Cc1csc(NC(=O)COc2ccc(C)cc2)n1 | inactive: 4.48% |
| Cc1cc(C)nc(/N=C(\N)Nc2ccc(SC(F)F)cc2)n1 | inconclusive: -56.3% |
| CC(C)(C)OC(=O)N1CCC[C@H]1C(=O)Nc1ccc(S(=O)(=O)C(F)F)cc1 | inconclusive: -42.1% |
| CCOC(=O)C1=CN(CC)S(=O)(=O)NC1c1ccccc1 (stereo not given) | active: -82.3% |
| O=C(N[C@@H]1CC[C@@H](CCn2cc(-c3ccccc3)nn2)O[C@@H]1CO)c1cnccn1 | active: -70.4% |
| CCOC(=O)C1(CCCc2ccccc2)CCN(C2CCCC2)CC1 | inconclusive: -43.6% |
| CCOc1ccc(CCNC(=O)c2c3c(nc4ccccc24)C(=O)N(C2CCCCC2)C3)cc1 | inactive: 7.67% |
| Fc1ccc(CSc2nncn2NC/C=C/c2ccccc2)cc1 | inconclusive: -55.1% |
| Cc1ccc(NC(=O)CS(=O)CC(=O)N(C(C)C(=O)NC2CCCCC2)C(C)(C)C)cc1 (stereo not given) | inconclusive: -47.6% |
| Cn1ncc(Cl)c1C(=O)NC(=S)Nc1sc2c(c1C#N)CCCCC2 | active: -60% |
| COC(=O)c1c(NC(=O)C2COc3ccccc3O2)sc2c1CCN(C(C)=O)C2 (stereo not given) | inactive: 12.4% |
| Cc1nonc1C(=O)N/N=C/c1cc2c(cc1Br)OCO2 | inconclusive: -55.8% |
| CC(C)C(O)(C#CCN1CCCCCC1)c1ccccc1 (stereo not given) | inconclusive: -43.2% |
| Cc1ccc(Cl)cc1NS(=O)(=O)c1ccc(-n2cccn2)cc1 | inconclusive: -43.7% |

| SMILES | activity change, negative = inhibition |
| --- | --- |
| COc1ccccc1N(Cc1ccccc1)S(=O)(=O)c1cccc(C(=O)Nc2ccccn2)c1 | inconclusive: -56.1% |
| COc1ccc(N2CCN(C(=O)c3[nH]c4ccc(OC)cc4c3C)CC2)cc1 | inactive: 18.5% |
| C=CCn1c(C)cc(-c2csc(NC(=O)C3CCN(c4ncnc5sc(C)c(C)c45)CC3)n2)c1C | inactive: 11.4% |
| COc1ccccc1C(=O)NC(=O)Nc1ccc(-c2cc(C(F)(F)F)nn2-c2ccccc2)cc1 | inactive: -36.2% |
| COc1cccc(NC(=O)COC(=O)c2ccccc2F)c1 | inconclusive: -48.2% |
| COc1ccc(Oc2nc(SC)nc3ccccc23)cc1 | inconclusive: -48.9% |
| Cc1ccc(C)c(N2CCN(C(=O)Cn3cnc4nc5c(cc4c3=O)CCCC5)CC2)c1 | inconclusive: -45.4% |
| CC(C)CN(CC(C)C)C(=O)CCCC(=O)N(CC(C)C)CC(C)C | inconclusive: -45.2% |
| CC(C)OC(=O)c1cc2ccccc2[nH]1 | inconclusive: -52% |
| CCc1ccccc1NC(=O)c1cc(C)no1 | inconclusive: -41.2% |
| O=C1/C(=C\c2ccc(O)c(O)c2)SC(=S)N1Cc1ccccc1 | inconclusive: -40.3% |
| Cc1ccccc1C(OCCN(C(C)C)C(C)C)c1ccccc1 (stereo not given) | inconclusive: -43% |
| C/C(=N\NC(=O)c1ccc(N/N=C(\C)c2ccc(O)cc2)cc1)c1ccc(O)cc1 | inactive: -13% |
| CC(C)c1onc(C(=O)N(C)C2CCCCC2)c1[N+](=O)[O-] | inconclusive: -52.8% |
| CCCNC(=O)C(Cc1ccc(Cl)cc1)NC(=O)c1ccc(-c2ccccc2)cc1 (stereo not given) | inconclusive: -46.3% |
| Cc1cc2nc(-c3ccc(OCc4ccccc4F)cc3)cc(C(F)(F)F)n2n1 | inactive: -10.1% |
| O=C(NCCO)c1ccc(-c2nnc(Nc3ccc(OC(F)(F)Cl)cc3)c3ccccc23)cc1 | inconclusive: -46.8% |
| CC(C)c1ccc(/C=C/C(=O)Nc2nc3ccc([N+](=O)[O-])cc3s2)cc1 | inconclusive: -43.1% |
| Cn1nc(C(F)(F)F)c(-c2ccc(F)cc2)c1NC(=O)Nc1ccc(F)cc1 | inconclusive: -45.7% |
| Cn1c(NCCCO)nc2c1c(=O)n(Cc1cccc(F)c1)c(=O)n2C | inactive: -3.03% |
| COc1ccc(C=NNC(=O)CCCC(=O)NN=Cc2ccc(OC)c(O)c2)cc1O | active: -68.8% |
| O=S(=O)(c1ccc(-c2nnc(SCc3nnc(-c4ccccc4)o3)o2)cc1)N1CCCC1 | inactive: -5.01% |

| SMILES | activity change, negative = inhibition |
| --- | --- |
| CC(C)=CCN1CCN(CC#Cc2ccccc2)CC1CCO (stereo not given) | inconclusive: -43.2% |
| CCOc1ccccc1CN1CCN(C/C=C/c2ccc(OC)cc2)CC1CCO (stereo not given) | inconclusive: -41.2% |
| O=C(NC1C=CS(=O)(=O)C1)c1ccccc1 (stereo not given) | inconclusive: -42.8% |
| COc1ccc(CCNC(=O)c2cnc3sc(N4CCCCCC4)nn3c2=O)cc1 | inactive: -6.61% |
| Cc1ccc([N+](=O)[O-])cc1-c1[nH]c(-c2ccc(O)c(O)c2)nc1-c1ccccc1 | inconclusive: -58.9% |
| Cc1ccccc1N1C(=O)c2cccc([N+](=O)[O-])c2C1=O | inconclusive: -44.5% |
| CN(Cc1nc2ccccc2n1C)S(C)(=O)=O | inactive: 14.9% |
| CCC(C)[C@H](NC(=O)NCc1cccs1)C(=O)O (stereo not given in full) | inconclusive: -45.7% |
| CCCCCC(C)NC(=S)NC(=O)c1cc(S(=O)(=O)N2CCOCC2)ccc1C (stereo not given) | active: -62.5% |
| Cc1cc(Cl)ccc1OCC(=O)NCC(c1cccs1)N1CCOCC1 (stereo not given) | active: -72.2% |
| CC(=O)c1ccc(Oc2ncnc(N)c2[N+](=O)[O-])cc1 | inconclusive: -42.3% |
| CCCCn1c(N)c(N(CCOC)C(=O)CCc2ccc(OC)cc2)c(=O)[nH]c1=O | inconclusive: -48.2% |
| CC1CCN(c2ccc(C(=O)OCC(=O)NCCN3C(=O)CSC3=O)cc2[N+](=O)[O-])CC1 | active: -78% |
| O=C(O)c1cccc(NC(=O)c2ccc3c(c2)C(=O)N(CC2CCCO2)C3=O)c1 (stereo not given) | active: -108% |
| COc1ccc(NC(=O)Cn2cnc3c(nc4n3CCCCC4)c2=O)cc1Cl | inactive: 10.8% |
| COc1ccc(OC)c(NC(=O)c2nnn(CC(=O)Nc3ccc(C(C)C)cc3)c2N)c1 | active: -62.7% |
| CC(=O)c1cn(CC(=O)Nc2ccccc2C)c2ccccc12 | active: -68.2% |
| O=C(Nc1cccc(NC(=O)c2ccco2)n1)c1ccco1 | inactive: 2.36% |
| COc1ccc(N2CCN(C(=O)C3CCCN(S(=O)(=O)c4ccc5c(c4)oc(=O)n5C)C3)CC2)cc1 (stereo not given) | inactive: -9.81% and inactive: -10.6% |
| C[C@@H]1CN([C@H](C)CO)C(=O)c2c(c3ccccc3n2C)-c2ccccc2CO[C@@H]1CN(C)S(=O)(=O)c1cccs1 | active: -80.8% |
| COc1ccc(C(=O)NC2CCCc3c2cnn3-c2ccccc2F)cc1OC (stereo not given) | inconclusive: 0% |
| O=C1/C(=C/c2cccnc2)SC(=S)N1Nc1ccccc1 | inactive: 6.4% |

| SMILES | activity change, negative = inhibition |
| --- | --- |
| c1ccc(-c2noc(CSc3nnc(Cc4cccs4)n3-c3ccccc3)n2)cc1 | inconclusive: -49.4% |
| Fc1cccc(NCCc2c[nH]c3ccccc23)n1 | inactive: -2.87% |
| CN(C)C(=O)c1ccc(N=Nc2c(O)c3ccccc3[nH]c2=O)cc1 | inactive: 24% |
| O=C(CN1CCCC1)N1CCCc2c1c(=O)oc1ccc(OCc3ccccc3)cc21 | inconclusive: -51.4% |
| CCOC(=O)C1(Cc2ccccc2C(F)(F)F)CCN(C2CCC2)CC1 | inactive: -0.591% |
| C/C(=N\NC(=O)CNc1cccc(C)c1)c1ccc(Br)s1 | active: -61.9% |
| CCOC(=O)c1cc2c(=O)n3ccccc3nc2n(CCOC)c1=NC(=O)c1c(-c2c(F)cccc2Cl)noc1C | active: -60.6% |
| CCn1c(Cc2ccc(OC)cc2)nnc1SCC(=O)N1CCN(c2ccccc2)CC1 | inconclusive: -53.5% |
| COC(=O)[C@@H]1[C@@H](CO)[C@@H]2Cn3c(ccc(Br)c3=O)[C@H]1N2S(=O)(=O)c1ccccc1F | inactive: -6.17% |
| CC(C)CC(NC(N)=O)C(=O)NCCc1ccc(Cl)cc1Cl (stereo not given) | inactive: 13.3% |
| CCc1ccccc1NC(=S)N=Nc1c(O)n(C)c2ccc(S(=O)(=O)N3CCOCC3)cc12 | inactive: -33.6% |
| CCN(CC)S(=O)(=O)c1cccc(-c2n[nH]c(=S)n2Cc2ccccc2)c1 | inconclusive: -54.1% |
| CC(C)Oc1ccc(S(=O)(=O)N2CCCCC2)cc1NC(=O)CN1CCCC1c1cccs1 (stereo not given) | inconclusive: -49.7% |
| COc1ccc(CCNC(=O)CN(c2ccc(OC)cc2)S(C)(=O)=O)cc1 | inconclusive: -41.3% |
| COc1cc(/C=C(\C#N)c2nn(CCO)c(N)c2C#N)cc(OC)c1OC | inactive: 24.1% |
| Cc1cc(C)n(CC(=O)c2ccc(Cl)cc2)n1 | inconclusive: -49% |
| CN(CC1CCCN(CCc2cccc(C(F)(F)F)c2)C1)C(=O)c1cc2ccccc2o1 (stereo not given) | inconclusive: -43.5% |
| O=C(CCNS(=O)(=O)c1ccc2c(c1)CCN2C(=O)C1CC1)Nc1ccc(Cl)cc1 | inconclusive: -44.2% |
| CC(=O)N1CCc2cc(Br)cc(S(=O)(=O)CCC(=O)NCc3ccc(F)cc3)c21 | inactive: -15.7% |
